Data as given in PubChem BioAssay AID1259308 (NCATS, 2017)

- Purpose: 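Genes whose loss raises luciferase production in HEK293 cells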 (primary screen)
- Cells: human HEK293 embryonic kidney cells stably expressing firefly luciferase (HEK-CMV-Luc2-Hygro)
- Knock-down reagent: single siRNA against human genes, 0.8 pmol siRNA per well
- Duration: 72 h
- Read-out: 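Reporter luminescence and viable-cell signal on separate replicate plates, given as percent of non-targeting control and median/MAD z-scores, plus per-cell luciferase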
- Scale: total luciferase, z-score: higher = more reporter protein produced
- Call rule: 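Active when the median/MAD z-score for overall luciferase is greater than 3; a gene was taken forward for validation with new siRNAs if at least two of its three siRNAs passed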
- Calls: active = raised luciferase; inactive = no rise
The deposit covers about 59,000 reagents; below is a part drawn at random. Of all reagents, about 1,510 (2.6%) got an active call. 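Calls use total luciferase alone and ignore viability, so some active siRNAs may act by altering cell number.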 A number with no mark means an inactive call. The numbers tell different reagents against one gene apart. Further read-outs or replicates are left out here.

With knock-down of HCAR3 #1 the results were total luciferase, z-score 1.82.
Knock-down of HCAR3 #2 gave: total luciferase, z-score 1.62.
HCAR3 #3 scored total luciferase, z-score 1.34.
Against CIMAP3 #1, the values are total luciferase, z-score -0.138.
CIMAP3 #2 scored total luciferase, z-score -0.0665.
Silencing of CIMAP3 #3 came out at: total luciferase, z-score -0.0434.
IRX2-DT #1 showed total luciferase, z-score -0.0413.
IRX2-DT #2 gave total luciferase, z-score -0.429.
With knock-down of IRX2-DT #3, the screen gave total luciferase, z-score -1.73.
After knock-down of FOXL2 #1 the results were total luciferase, z-score -0.072.
FOXL2 #2 gave total luciferase, z-score 0.0877.
FOXL2 #3 showed total luciferase, z-score 2.28.
LY9 #1 gave total luciferase, z-score -1.16.
Against LY9 #2, the entry reads total luciferase, z-score -0.293.
LY9 #3 showed total luciferase, z-score 1.99.
SRD5A3 #1 scored total luciferase, z-score 1.66.
Against SRD5A3 #2, the entry reads total luciferase, z-score 0.162.
For SRD5A3 #3 the deposit lists total luciferase, z-score -2.55.
For FAM3C #1, the values are total luciferase, z-score 0.353.
After knock-down of FAM3C #2 the results were total luciferase, z-score -1.05.
Against FAM3C #3, the entry reads total luciferase, z-score -0.972.

Part of the list above, reformatted:
{"gene": "FOXL2", "reagent no.": 2, "total luciferase, z-score": 0.0877}
{"gene": "FOXL2", "reagent no.": 3, "total luciferase, z-score": 2.28}
{"gene": "LY9", "reagent no.": 1, "total luciferase, z-score": -1.16}
{"gene": "LY9", "reagent no.": 2, "total luciferase, z-score": -0.293}
